Results are given in words; binding and its absence hold for the method and conditions named. Binding seen in cells or lysates may run through a third protein. Some binding calls cover weakened binding; strength is not graded here. Blank lines part the entries; values can stand above or below the substance they belong to.
Experiments:
[1] = target: endogenous JAK2 of mouse BMDCs (mouse (endogenous in BMDCs)) (UniProt Q62120); assay: co-IP; BMDCs transfected with HA-OPTN or empty vector; interaction of endogenous STAT3 and JAK2 analysed by IP
[2] = target: endogenous STAT3 of mouse BMDCs (mouse (endogenous in BMDCs)) (UniProt P42227); assay: co-IP; endogenous proteins in BMDCs after LPS treatment; IP with anti-JAK2 or anti-STAT3, normal rabbit IgG as control; blot with anti-TLR4, anti-JAK2, anti-STAT3
[3] = target: endogenous JAK2 of mouse BMDCs (mouse (endogenous in BMDCs)) (UniProt Q62120); assay: as above
[4] = target: endogenous OPTN of mouse primary BMDCs (mouse (endogenous in BMDCs)) (UniProt Q8K3K8); assay: co-IP; endogenous proteins in mouse primary BMDC whole-cell lysate; IP with anti-OPTN (control IgG), Protein A/G beads, blot for JAK2
[5] = target: endogenous JAK2 of mouse BMDCs (mouse (endogenous in BMDCs)) (UniProt Q62120); assay: cross-linking; BMDCs transfected with HA-OPTN or empty vector; whole-cell lysates incubated with disuccinimidyl suberate (DSS); JAK2 blot, dimer and monomer bands

Sequences of proteins named here, by UniProt entry; tags and fusion partners are left off. Residues count along the entry.
UniProt Q62120: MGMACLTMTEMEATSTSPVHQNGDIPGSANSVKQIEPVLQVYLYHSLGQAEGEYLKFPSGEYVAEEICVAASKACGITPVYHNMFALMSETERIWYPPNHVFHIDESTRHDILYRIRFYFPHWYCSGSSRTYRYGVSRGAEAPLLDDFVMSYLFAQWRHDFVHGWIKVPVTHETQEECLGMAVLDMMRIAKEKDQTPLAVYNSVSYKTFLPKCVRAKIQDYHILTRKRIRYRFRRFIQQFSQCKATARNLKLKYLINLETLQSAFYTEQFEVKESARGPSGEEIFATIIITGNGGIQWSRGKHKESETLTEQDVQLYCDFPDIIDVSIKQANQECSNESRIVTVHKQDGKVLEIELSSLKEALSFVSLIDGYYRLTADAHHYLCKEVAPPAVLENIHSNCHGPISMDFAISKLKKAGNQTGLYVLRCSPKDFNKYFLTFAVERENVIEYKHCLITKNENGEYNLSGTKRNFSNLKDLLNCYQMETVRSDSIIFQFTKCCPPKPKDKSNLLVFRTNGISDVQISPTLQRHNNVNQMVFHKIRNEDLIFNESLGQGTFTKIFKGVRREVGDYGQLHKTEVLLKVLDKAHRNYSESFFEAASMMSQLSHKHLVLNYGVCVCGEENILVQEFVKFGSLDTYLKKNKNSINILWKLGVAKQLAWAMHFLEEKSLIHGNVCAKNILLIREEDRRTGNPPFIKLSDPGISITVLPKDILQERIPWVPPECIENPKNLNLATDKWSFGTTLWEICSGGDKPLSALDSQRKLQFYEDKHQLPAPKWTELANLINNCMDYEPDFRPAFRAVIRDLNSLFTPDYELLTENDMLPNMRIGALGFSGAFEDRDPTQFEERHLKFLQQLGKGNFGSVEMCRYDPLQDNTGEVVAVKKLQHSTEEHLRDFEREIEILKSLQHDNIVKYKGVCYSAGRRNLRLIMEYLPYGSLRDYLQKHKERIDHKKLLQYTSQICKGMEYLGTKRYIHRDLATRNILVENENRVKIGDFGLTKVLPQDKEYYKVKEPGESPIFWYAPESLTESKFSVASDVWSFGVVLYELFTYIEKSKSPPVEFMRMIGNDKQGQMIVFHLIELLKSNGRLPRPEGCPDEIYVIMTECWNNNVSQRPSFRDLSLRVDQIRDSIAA
UniProt P42227: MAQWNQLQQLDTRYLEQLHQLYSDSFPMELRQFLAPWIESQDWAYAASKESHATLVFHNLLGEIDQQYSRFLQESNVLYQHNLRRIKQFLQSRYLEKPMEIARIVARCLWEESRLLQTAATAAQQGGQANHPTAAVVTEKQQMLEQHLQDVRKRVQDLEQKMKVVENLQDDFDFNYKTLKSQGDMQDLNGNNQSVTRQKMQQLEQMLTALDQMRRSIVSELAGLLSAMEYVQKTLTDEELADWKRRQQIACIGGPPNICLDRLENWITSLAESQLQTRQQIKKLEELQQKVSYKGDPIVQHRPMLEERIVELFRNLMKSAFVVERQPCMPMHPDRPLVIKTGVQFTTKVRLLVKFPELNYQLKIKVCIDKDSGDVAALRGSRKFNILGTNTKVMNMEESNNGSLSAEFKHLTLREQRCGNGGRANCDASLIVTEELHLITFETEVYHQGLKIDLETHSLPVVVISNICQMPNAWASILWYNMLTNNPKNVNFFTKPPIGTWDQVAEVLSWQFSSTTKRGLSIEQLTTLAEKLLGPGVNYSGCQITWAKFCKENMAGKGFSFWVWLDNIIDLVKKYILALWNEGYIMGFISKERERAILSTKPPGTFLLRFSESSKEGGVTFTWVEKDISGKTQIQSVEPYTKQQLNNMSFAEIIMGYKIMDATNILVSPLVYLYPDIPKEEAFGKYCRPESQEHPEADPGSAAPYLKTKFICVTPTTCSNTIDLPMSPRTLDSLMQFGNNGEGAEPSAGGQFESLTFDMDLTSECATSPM
UniProt Q8K3K8: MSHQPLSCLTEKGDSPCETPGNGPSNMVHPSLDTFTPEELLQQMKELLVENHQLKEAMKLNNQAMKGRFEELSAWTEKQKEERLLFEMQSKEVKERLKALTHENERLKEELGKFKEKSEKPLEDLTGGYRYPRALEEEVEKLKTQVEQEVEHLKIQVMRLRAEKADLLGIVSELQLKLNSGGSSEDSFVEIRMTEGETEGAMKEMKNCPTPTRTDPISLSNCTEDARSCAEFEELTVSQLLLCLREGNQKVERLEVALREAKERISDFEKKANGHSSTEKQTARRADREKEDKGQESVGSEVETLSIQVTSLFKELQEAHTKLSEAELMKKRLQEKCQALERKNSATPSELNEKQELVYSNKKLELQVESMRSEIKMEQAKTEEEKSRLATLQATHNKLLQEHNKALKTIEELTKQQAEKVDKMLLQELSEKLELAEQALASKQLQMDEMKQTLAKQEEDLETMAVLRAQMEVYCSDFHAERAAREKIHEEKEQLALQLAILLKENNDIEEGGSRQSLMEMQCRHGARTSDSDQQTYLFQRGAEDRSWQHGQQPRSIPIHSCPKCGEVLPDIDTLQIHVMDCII
UniProt Q96CV9: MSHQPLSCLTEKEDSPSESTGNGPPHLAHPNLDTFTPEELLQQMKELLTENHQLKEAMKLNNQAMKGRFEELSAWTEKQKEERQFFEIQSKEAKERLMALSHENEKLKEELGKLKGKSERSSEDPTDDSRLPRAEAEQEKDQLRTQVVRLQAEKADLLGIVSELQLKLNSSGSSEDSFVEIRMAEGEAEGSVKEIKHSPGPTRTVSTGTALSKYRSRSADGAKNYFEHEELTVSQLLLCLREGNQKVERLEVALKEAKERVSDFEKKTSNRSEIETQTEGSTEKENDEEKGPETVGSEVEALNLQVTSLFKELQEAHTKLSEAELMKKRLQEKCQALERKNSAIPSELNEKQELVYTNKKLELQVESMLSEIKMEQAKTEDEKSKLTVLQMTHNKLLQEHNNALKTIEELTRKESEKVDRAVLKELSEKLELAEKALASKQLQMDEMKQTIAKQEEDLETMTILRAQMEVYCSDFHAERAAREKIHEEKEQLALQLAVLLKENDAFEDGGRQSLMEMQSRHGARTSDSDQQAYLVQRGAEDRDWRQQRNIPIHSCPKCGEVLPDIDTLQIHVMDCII
UniProt Q9QUK6, residues 26-835: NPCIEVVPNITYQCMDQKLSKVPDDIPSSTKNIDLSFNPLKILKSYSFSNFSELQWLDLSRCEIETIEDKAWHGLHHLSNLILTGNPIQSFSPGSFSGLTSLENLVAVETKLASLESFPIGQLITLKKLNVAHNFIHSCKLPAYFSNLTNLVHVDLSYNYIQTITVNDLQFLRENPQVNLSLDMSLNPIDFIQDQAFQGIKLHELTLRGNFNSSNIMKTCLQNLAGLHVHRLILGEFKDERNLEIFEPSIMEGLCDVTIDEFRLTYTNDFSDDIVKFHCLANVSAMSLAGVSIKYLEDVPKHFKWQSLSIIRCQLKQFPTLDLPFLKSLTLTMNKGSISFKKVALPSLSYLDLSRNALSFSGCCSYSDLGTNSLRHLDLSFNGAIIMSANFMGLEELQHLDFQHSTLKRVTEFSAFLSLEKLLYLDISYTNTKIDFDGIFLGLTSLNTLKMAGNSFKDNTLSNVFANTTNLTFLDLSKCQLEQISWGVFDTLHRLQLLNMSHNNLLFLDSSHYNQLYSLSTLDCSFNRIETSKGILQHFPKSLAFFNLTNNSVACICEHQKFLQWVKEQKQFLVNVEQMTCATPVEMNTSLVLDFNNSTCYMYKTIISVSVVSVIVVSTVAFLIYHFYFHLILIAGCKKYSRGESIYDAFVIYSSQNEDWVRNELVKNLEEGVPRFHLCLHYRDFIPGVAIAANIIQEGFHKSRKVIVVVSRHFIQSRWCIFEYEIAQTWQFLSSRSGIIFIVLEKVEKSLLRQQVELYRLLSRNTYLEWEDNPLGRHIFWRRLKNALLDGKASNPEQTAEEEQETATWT

- binding [1]: binds
Substance: HA-tagged OPTN, expressed in mouse BMDCs (from UniProt Q96CV9 1-577)

- binding [2]: no binding
- binding [3]: no binding
Substance: endogenous TLR4 of mouse BMDCs (from UniProt Q9QUK6 26-835) (receptor)

- binding [4]: binds
- binding [5]: binds
Substance: endogenous JAK2 of mouse BMDCs (from UniProt Q62120 1-1132)

From article PMC8551263, “Optineurin modulates the maturation of dendritic cells to regulate autoimmunity through JAK2-STAT3 signaling” (Nature Communications, 2021)
